log2 fold change data for 39 targets are collected here from the supplement of paper PMC10849652.

The chains behind the UniProt entries cited, without tags or fusion partners. Where a name states a change or a piece, a line headed by the entry shows the natural chain unless it says otherwise.
UniProt P61758, whole entry, looked up: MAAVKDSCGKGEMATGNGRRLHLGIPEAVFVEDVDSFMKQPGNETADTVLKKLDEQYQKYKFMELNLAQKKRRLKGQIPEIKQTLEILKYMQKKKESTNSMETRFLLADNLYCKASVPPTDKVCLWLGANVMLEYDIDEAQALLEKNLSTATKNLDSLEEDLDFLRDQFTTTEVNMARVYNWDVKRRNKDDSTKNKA
UniProt Q16880: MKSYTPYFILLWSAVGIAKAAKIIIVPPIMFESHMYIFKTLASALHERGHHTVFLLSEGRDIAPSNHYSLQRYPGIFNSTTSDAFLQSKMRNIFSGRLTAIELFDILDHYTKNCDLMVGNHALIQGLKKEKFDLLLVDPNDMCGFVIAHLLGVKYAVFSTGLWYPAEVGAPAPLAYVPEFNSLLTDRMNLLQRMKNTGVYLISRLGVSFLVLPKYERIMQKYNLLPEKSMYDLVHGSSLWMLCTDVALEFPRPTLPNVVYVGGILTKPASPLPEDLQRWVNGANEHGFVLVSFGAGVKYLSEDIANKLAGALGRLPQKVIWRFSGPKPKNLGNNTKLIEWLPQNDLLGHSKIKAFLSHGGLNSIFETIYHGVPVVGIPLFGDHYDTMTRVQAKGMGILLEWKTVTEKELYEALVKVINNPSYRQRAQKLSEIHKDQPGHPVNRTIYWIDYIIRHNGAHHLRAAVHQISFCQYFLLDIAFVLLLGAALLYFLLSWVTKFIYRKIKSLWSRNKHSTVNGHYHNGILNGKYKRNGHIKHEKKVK
UniProt O94763, whole entry, looked up: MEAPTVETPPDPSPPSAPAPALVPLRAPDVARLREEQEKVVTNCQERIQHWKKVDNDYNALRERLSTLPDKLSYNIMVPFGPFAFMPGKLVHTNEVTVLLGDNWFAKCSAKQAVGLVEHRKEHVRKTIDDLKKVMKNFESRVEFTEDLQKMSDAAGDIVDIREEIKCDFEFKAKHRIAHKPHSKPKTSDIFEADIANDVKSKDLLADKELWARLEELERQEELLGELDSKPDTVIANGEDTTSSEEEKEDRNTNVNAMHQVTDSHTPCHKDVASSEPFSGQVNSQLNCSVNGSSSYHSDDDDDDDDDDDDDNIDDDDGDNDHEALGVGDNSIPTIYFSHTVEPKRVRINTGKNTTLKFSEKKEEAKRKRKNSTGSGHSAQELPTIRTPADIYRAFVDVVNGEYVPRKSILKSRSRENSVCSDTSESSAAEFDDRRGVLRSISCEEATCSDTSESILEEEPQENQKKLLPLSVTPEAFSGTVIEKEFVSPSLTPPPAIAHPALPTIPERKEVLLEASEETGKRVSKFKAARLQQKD
UniProt Q08AM6: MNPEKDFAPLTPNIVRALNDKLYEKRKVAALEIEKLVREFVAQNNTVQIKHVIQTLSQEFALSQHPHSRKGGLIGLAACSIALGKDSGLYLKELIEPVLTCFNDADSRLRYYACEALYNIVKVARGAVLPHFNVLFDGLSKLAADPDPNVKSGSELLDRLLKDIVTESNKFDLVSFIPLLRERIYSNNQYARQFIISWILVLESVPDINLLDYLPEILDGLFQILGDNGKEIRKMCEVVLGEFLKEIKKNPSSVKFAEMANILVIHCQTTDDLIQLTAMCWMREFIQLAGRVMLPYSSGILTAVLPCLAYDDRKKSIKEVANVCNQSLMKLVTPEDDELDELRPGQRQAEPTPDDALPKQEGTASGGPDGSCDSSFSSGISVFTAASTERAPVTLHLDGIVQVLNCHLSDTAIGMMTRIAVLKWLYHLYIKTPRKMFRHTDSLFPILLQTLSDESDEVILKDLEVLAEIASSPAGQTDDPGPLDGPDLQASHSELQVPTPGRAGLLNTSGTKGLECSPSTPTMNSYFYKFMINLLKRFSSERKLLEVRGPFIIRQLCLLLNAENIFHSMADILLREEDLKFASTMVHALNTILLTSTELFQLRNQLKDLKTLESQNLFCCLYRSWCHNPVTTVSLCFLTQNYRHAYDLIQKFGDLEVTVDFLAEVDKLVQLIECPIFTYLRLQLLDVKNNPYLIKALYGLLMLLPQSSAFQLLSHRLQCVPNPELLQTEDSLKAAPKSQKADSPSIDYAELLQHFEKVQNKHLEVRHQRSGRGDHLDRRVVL
UniProt Q70CQ2: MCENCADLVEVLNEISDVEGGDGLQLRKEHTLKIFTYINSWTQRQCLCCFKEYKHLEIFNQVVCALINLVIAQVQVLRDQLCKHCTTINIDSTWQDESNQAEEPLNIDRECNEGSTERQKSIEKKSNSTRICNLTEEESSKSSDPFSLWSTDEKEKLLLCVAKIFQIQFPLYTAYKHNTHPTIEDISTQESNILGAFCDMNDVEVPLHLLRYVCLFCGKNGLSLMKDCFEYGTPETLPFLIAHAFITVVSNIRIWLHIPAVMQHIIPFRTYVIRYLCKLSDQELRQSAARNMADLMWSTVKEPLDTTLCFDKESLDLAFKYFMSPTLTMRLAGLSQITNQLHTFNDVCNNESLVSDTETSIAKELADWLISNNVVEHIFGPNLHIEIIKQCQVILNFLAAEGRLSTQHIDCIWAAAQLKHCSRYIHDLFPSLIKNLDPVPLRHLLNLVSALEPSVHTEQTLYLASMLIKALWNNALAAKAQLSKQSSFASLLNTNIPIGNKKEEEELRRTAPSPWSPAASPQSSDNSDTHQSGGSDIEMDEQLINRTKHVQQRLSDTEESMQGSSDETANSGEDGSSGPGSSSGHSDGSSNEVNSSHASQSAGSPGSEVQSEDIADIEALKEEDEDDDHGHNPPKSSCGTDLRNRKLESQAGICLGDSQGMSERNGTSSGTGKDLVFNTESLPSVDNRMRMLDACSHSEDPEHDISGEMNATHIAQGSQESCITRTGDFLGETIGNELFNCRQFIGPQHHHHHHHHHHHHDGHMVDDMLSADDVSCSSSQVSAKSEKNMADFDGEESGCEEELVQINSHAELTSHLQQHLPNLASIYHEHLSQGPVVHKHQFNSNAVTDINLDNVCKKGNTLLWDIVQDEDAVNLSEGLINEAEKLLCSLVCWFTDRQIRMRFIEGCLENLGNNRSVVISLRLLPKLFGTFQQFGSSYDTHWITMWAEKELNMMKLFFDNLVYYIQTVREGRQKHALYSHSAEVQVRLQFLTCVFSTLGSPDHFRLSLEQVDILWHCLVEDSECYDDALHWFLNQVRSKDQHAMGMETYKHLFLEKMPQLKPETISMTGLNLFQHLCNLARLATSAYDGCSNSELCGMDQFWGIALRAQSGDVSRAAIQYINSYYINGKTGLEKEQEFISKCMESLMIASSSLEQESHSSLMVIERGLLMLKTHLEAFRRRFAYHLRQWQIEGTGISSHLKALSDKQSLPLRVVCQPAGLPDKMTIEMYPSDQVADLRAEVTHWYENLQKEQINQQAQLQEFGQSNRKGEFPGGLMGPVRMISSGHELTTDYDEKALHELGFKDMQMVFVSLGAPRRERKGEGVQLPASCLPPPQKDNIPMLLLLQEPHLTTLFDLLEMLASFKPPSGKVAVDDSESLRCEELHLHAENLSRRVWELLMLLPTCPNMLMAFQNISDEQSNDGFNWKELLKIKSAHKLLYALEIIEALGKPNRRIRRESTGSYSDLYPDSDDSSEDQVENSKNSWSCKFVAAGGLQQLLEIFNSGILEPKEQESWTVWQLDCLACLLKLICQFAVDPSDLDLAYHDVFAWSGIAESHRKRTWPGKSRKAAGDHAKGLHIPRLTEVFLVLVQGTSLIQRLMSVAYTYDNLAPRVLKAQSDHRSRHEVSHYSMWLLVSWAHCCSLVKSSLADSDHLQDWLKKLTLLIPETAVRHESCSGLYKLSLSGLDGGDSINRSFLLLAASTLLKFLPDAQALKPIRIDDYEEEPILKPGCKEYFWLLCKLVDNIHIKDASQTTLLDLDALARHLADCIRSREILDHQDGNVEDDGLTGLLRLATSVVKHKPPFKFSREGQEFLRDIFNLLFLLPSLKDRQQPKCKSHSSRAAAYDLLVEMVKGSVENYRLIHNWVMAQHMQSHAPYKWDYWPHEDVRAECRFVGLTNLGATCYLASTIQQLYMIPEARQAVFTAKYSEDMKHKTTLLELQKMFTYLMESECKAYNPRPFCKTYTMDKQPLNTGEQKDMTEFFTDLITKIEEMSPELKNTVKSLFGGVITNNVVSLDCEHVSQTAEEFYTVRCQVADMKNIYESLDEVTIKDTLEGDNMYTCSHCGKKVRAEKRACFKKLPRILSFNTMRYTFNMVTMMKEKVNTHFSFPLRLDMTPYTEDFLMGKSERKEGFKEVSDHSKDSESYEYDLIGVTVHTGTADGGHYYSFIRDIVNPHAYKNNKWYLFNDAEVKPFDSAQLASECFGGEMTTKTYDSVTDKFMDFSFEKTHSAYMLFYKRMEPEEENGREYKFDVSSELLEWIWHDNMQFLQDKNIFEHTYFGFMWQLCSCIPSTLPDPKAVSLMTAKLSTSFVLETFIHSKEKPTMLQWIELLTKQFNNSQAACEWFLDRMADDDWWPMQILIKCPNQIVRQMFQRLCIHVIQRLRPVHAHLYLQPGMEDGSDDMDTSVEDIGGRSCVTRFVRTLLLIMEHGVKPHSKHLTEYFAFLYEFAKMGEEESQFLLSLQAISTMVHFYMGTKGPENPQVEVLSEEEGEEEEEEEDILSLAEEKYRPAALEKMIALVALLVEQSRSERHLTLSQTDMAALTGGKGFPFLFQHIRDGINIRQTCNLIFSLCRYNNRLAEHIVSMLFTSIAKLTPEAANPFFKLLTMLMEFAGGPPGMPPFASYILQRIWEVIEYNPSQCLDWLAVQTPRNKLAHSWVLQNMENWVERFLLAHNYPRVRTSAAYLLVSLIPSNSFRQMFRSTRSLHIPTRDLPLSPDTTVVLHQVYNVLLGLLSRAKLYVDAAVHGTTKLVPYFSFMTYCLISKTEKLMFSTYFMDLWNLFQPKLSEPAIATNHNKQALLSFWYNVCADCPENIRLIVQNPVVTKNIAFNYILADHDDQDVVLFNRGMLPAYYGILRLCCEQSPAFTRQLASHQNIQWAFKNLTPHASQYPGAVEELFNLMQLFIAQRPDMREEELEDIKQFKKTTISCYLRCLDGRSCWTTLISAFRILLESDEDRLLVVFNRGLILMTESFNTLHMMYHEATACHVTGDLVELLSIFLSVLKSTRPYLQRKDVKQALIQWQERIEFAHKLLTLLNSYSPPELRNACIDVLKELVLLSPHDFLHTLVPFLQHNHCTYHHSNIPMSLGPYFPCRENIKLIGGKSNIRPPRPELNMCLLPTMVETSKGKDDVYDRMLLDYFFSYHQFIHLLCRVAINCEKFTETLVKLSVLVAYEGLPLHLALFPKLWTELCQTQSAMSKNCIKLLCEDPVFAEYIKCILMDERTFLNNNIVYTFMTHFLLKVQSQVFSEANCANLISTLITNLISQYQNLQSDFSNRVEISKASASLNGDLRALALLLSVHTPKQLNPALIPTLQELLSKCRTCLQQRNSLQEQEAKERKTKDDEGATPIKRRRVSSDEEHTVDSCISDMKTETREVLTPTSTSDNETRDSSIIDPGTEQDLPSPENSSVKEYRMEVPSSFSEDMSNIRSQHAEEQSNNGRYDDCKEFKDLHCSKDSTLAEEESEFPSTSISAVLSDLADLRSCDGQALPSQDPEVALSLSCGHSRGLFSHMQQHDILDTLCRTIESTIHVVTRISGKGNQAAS
UniProt Q9UBK9, whole entry, looked up: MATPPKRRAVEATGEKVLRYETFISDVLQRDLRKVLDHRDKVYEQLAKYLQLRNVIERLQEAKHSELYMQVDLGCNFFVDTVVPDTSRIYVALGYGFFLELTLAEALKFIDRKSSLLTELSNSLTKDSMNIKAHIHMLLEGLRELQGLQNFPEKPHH
UniProt Q9Y5K5, whole entry, looked up: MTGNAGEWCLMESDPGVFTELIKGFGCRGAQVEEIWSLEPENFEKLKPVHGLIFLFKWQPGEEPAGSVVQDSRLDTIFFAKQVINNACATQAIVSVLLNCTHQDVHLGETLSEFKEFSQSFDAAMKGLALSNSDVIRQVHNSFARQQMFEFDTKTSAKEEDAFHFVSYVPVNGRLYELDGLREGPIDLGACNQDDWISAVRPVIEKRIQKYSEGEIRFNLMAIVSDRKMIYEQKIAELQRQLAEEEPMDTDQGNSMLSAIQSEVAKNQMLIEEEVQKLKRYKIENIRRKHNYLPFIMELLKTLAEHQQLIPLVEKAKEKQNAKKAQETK
UniProt Q92575: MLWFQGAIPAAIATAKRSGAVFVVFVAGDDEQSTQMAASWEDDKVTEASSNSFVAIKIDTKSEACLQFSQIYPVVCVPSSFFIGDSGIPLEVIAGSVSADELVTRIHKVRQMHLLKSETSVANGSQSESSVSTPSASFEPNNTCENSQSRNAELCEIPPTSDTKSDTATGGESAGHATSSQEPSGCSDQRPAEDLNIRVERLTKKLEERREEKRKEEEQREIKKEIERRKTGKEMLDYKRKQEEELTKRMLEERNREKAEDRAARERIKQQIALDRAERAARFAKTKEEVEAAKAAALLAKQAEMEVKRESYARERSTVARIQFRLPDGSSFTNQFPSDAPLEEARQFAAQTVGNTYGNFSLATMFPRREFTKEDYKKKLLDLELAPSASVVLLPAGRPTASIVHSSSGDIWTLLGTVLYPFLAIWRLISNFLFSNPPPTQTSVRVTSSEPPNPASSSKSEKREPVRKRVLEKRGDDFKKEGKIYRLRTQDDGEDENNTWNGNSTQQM

The other results are listed elsewhere or left out.

Compound in the first assay: C#Cc1cccc(Nc2ncnc3cc(OCCOC)c(OCCOC)cc23)c1 [erlotinib]
The assay is described as follows: log2 fold change, soluble protein after heating vs DMSO (PISA); higher = thermal stabilisation; K562 cells, 10 uM, 30 min; active = over 0.2 and 3.5 SD of the protein, either way, in both replicates (recomputed). The method in brief:
(§1)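 For each measurement, 10 μM compound was applied for 30 min to K562 cells at 2×10^6 cells/mL. Aliquots were heated for 3 min across 48°C-58°C, pooled, and extracted in PBS with 0.5% NP-40 at 4°C; the supernatant after 21,000xg for 90 min was soluble protein. This was quantified by TMTpro 16plex LC-MS/MS with channel sums equalised, and thermal stability was reported relative to control samples from duplicates, on a log2 fold-change scale.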
Consider USF1 (UniProt P22415), for which the log2 fold change was inactive: 0.161.

As for UHRF1BP1L (UniProt A0JNW5), the log2 fold change was inactive: -0.024.

As for VBP1 (UniProt P61758), the log2 fold change is inactive: 0.001.

Regarding UTP15 (UniProt Q8TED0), the log2 fold change is inactive: -0.195.

On to UPRT (UniProt Q96BW1), for which the log2 fold change was inactive: 0.023.

For UGP2 (UniProt Q16851), the log2 fold change is inactive: 0.004.

On to UGT8 (UniProt Q16880), for which the log2 fold change is inactive: -0.027.

As for UMPS (UniProt P11172), the log2 fold change is inactive: 0.044.

Take UPF3B (UniProt Q9BZI7): the log2 fold change is inactive: -0.108.

For UVRAG (UniProt Q9P2Y5), the log2 fold change was inactive: 0.049.

As for VAMP7 (UniProt P51809), the log2 fold change was inactive: -0.02.

For UQCRC2 (UniProt P22695), the log2 fold change is inactive: 0.

Turning to USP20 (UniProt Q9Y2K6), the log2 fold change was inactive: 0.024.

For the target VCP (UniProt P55072), the log2 fold change is inactive: -0.01.

As to URI1 isoform 4 (UniProt O94763), the log2 fold change is inactive: -0.118.

As for USO1 isoform 2 (UniProt O60763), the log2 fold change was inactive: -0.008.

As for UFC1 (UniProt Q9Y3C8), the log2 fold change was inactive: 0.033.

As for VAMP4 (UniProt O75379), the log2 fold change was inactive: 0.025.

UBL4A (UniProt P11441): the log2 fold change was inactive: -0.056.

With UFSP2 (UniProt Q9NUQ7), the log2 fold change was inactive: 0.035.

Regarding VAC14 (UniProt Q08AM6), the log2 fold change was inactive: -0.001.

With USP25 isoform 3 (UniProt Q9UHP3), the log2 fold change is inactive: 0.007.

USP3 (UniProt Q9Y6I4): the log2 fold change is inactive: 0.099.

In the case of USP16 (UniProt Q9Y5T5), the log2 fold change is inactive: 0.014.

Take USP15 (UniProt Q9Y4E8): the log2 fold change was inactive: 0.026.

Consider UXS1 isoform 2 (UniProt Q8NBZ7), for which the log2 fold change was inactive: -0.003.

Regarding UGCG (UniProt Q16739), the log2 fold change was inactive: -0.034.

On to USP34 (UniProt Q70CQ2), for which the log2 fold change is inactive: 0.065.

For the target UQCC2 (UniProt Q9BRT2), the log2 fold change is inactive: 0.016.

Take UNC93B1 (UniProt Q9H1C4): the log2 fold change was inactive: 0.023.

For the target UBR2 (UniProt Q8IWV8), the log2 fold change was inactive: 0.019.

With URI1 (UniProt O94763), the log2 fold change is inactive: -0.007.

Take UXT isoform 2 (UniProt Q9UBK9): the log2 fold change was active: 0.925.

Consider UROD (UniProt P06132), for which the log2 fold change was inactive: 0.042.

As to UCHL5 (UniProt Q9Y5K5), the log2 fold change is inactive: -0.018.

As for UCHL5 isoform 3 (UniProt Q9Y5K5), the log2 fold change is inactive: 0.047.

Turning to UQCRFS1 (UniProt P47985), the log2 fold change was inactive: -0.005.

UBXN4 (UniProt Q92575): the log2 fold change is inactive: 0.023.

As to UCK2 (UniProt Q9BZX2), the log2 fold change was inactive: 0.011.

Compound in a further assay: C/C(=N\NC(=O)C1=CC(=CC=C1)S(=O)(=O)N2CCOCC2)/C3=C(C=CC(=C3)Cl)O
The assay is described as above. In a few lines:
as §1
As for USF1 (UniProt P22415), the log2 fold change was inactive: 0.087.

As for UHRF1BP1L (UniProt A0JNW5), the log2 fold change is inactive: 0.017.

Regarding VBP1 (UniProt P61758), the log2 fold change was inactive: -0.012.

As for UTP15 (UniProt Q8TED0), the log2 fold change is inactive: -0.131.

On to UPRT (UniProt Q96BW1), for which the log2 fold change was inactive: 0.06.

UGP2 (UniProt Q16851): the log2 fold change was inactive: 0.006.

As for UGT8 (UniProt Q16880), the log2 fold change is inactive: 0.009.

Regarding UMPS (UniProt P11172), the log2 fold change was inactive: 0.

Regarding UPF3B (UniProt Q9BZI7), the log2 fold change is inactive: -0.149.

Take UVRAG (UniProt Q9P2Y5): the log2 fold change was inactive: 0.044.

Turning to VAMP7 (UniProt P51809), the log2 fold change is inactive: 0.003.

UQCRC2 (UniProt P22695): the log2 fold change is inactive: 0.001.

Consider USP20 (UniProt Q9Y2K6), for which the log2 fold change was inactive: 0.035.

In the case of VCP (UniProt P55072), the log2 fold change is inactive: -0.018.

For the target URI1 isoform 4 (UniProt O94763), the log2 fold change was inactive: -0.097.

Take USO1 isoform 2 (UniProt O60763): the log2 fold change was inactive: 0.046.

Turning to UFC1 (UniProt Q9Y3C8), the log2 fold change was inactive: 0.002.

On to VAMP4 (UniProt O75379), for which the log2 fold change was inactive: -0.011.

With UBL4A (UniProt P11441), the log2 fold change was inactive: 0.03.

UFSP2 (UniProt Q9NUQ7): the log2 fold change is inactive: 0.103.

With VAC14 (UniProt Q08AM6), the log2 fold change was inactive: -0.008.

Consider USP25 isoform 3 (UniProt Q9UHP3), for which the log2 fold change is inactive: 0.086.

As to USP3 (UniProt Q9Y6I4), the log2 fold change is inactive: 0.114.

Regarding USP16 (UniProt Q9Y5T5), the log2 fold change was inactive: -0.064.

As for USP15 (UniProt Q9Y4E8), the log2 fold change is inactive: 0.078.

UXS1 isoform 2 (UniProt Q8NBZ7): the log2 fold change is inactive: -0.1.

In the case of UGCG (UniProt Q16739), the log2 fold change was inactive: -0.107.

USP34 (UniProt Q70CQ2): the log2 fold change is inactive: 0.074.

For the target UQCC2 (UniProt Q9BRT2), the log2 fold change is inactive: 0.001.

On to UNC93B1 (UniProt Q9H1C4), for which the log2 fold change is inactive: -0.028.

For the target UBR2 (UniProt Q8IWV8), the log2 fold change was inactive: 0.067.

With URI1 (UniProt O94763), the log2 fold change was inactive: 0.003.

UXT isoform 2 (UniProt Q9UBK9): the log2 fold change was inactive: -0.263.

As to UROD (UniProt P06132), the log2 fold change is inactive: 0.015.

With UCHL5 (UniProt Q9Y5K5), the log2 fold change is inactive: 0.094.

As for UCHL5 isoform 3 (UniProt Q9Y5K5), the log2 fold change was inactive: 0.106.

As for UQCRFS1 (UniProt P47985), the log2 fold change is inactive: -0.029.

In the case of UBXN4 (UniProt Q92575), the log2 fold change is inactive: -0.009.

For UCK2 (UniProt Q9BZX2), the log2 fold change is inactive: 0.034.
